Assay results as given in patent US20250109201A1.
No constants are given. Whether binding was seen depends on the method and setting. Some entries that bind do so weakly or less than the wild type.

The chains behind the UniProt entries cited, without tags or fusion partners. Residues count along the entry.
UniProt Q8NHL6, residues 24-482: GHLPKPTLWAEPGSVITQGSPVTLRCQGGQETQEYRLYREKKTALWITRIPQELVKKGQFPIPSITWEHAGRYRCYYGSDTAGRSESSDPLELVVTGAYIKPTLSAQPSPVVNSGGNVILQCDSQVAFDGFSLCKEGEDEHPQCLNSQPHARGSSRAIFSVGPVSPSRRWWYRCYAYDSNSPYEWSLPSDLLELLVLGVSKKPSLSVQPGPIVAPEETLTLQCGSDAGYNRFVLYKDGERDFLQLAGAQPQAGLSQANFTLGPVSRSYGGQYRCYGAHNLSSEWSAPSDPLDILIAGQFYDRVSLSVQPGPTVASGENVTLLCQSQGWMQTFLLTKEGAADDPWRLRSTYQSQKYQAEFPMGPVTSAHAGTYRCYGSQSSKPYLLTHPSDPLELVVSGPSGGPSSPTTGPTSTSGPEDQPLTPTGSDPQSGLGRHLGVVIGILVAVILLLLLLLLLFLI

Legend:
[1] = molecular target: human ILT2 extracellular and transmembrane domains expressed on CHO cells (human) (UniProt Q8NHL6); assay: flow cytometry, CHO cells expressing a relatively low level of human ILT2, FITC mouse anti-human IgG4
[2] = molecular target: human ILT2 extracellular and transmembrane domains expressed on CHO cells (human) (UniProt Q8NHL6); assay: flow cytometry, CHO cells with high and with low human ILT2
[3] = molecular target: human ILT2 extracellular and transmembrane domains expressed on CHO cells (human) (UniProt Q8NHL6); assay: flow cytometry, CHO cells expressing a relatively high level of human ILT2, FITC mouse anti-human IgG4

Measured: binding

B1: 15G8 (Reference antibody) (antibody, V domains shown)
VH: DVQLQGSGPGLVKPSETLSLTCSVTGYSITSGYYWNWIRQFPGKKLEWMGYISYDGSNNYNPSLKNRITISRDTSKNQFSLKLNSVTAADTATYYCAHGYSYYYAMDAWGQGTSVTVSS
VL: DIQMTQSPSSLSASVGDRVTITCRTSQDISNYLNWYQQKPGKAVKLLISYTSRLHSGVPSRFSGSGSGTDYTLTISSLQPEDFATYYCQQGNTLPTFGQGTKLEIK
binds: [1] | [2] | [3]
